Experimental data as given in publication PMC2712759, “Hsp70 Chaperones and Type I PRMTs Are Sequestered at Intranuclear Inclusions Caused by Polyalanine Expansions in PABPN1” (PLoS ONE, 2009).
These are yes or no findings as the source states them, for the method shown. In cells and extracts the contact can be indirect. These calls come from enrichment with a bait or labelling near it, and not all partners need be listed. Where a sequence is shown, tags or fusion partners need not be part of it.

T1: expanded human PABPN1, tract of 17 alanine residues, His-tagged, biotinylated (human) (UniProt Q86U42)
T1 sequence (chain, biotin (EZ-Link PEO-Maleimide Activated Biotin)): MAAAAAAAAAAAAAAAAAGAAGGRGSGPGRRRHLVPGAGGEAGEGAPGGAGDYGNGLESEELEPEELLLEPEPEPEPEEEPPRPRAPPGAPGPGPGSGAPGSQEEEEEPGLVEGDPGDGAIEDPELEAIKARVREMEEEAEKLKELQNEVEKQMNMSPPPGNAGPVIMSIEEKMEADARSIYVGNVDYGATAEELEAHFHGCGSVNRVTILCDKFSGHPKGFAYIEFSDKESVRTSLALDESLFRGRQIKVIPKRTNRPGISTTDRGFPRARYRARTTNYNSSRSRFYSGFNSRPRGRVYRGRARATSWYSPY

T2: normal human PABPN1 (poly(A)-binding protein nuclear 1), homopolymer of 10 alanine residues, His-tagged, biotinylated (human) (UniProt Q86U42)
T2 sequence (chain, biotin (EZ-Link PEO-Maleimide Activated Biotin)): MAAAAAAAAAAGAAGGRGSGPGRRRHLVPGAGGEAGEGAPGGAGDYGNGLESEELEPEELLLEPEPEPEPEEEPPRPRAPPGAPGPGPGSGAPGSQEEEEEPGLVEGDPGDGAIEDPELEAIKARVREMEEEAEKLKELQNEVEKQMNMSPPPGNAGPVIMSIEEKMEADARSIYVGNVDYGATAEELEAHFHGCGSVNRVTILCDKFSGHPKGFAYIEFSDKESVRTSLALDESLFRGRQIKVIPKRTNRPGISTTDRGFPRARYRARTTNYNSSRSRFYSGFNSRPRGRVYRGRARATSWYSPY


Columns and labels:
[1] = molecular target: T1, expanded human PABPN1, tract of 17 alanine residues, His-tagged, biotinylated (human); experiment: affinity purification with mass spectrometry; biotinylated His-PABPN1 (2 µg) on streptavidin-agarose beads, incubated with RNase A-treated extracts of undifferentiated (myoblasts) and differentiated (myotubes) C2 cells, 4 h at 4°C, 20 mM Tris pH 8.0, 200 mM KCl, 10% glycerol; bands excised from SDS-PAGE, MALDI-MS; only the target purified
[2] = molecular target: T2, normal human PABPN1 (poly(A)-binding protein nuclear 1), homopolymer of 10 alanine residues, His-tagged, biotinylated (human); experiment: as above

Binder	binding [1]	binding [2]
PABPN1 identified by mass spectrometry in the pull-down (mouse entry) (protein, UniProt Q8CCS6 1-302) MAAAAAAAAAAGAAGGRGSGPGRRRHLVPGAGGEAGEGDPGGAGDYGNGLESEELEPGELLPEPEPEEEPPRPRAPPGAPGPGPGSGAPGSQEEEEEPGLVEADPGDGAIEDPELEAIKARVREMEEEAEKLKELQNEVEKQMNMSPPPGNAGPVIMSLEEKMEADARSIYVGNVDYGATAEELEAHFHGCGSVNRVTILCDKFSGHPKGFAYIEFSDKESVRTSLALDESLFRGRQIKVIPKRTNRPGISTTDRGFPRSRYRARTTNYNSSRSRFYSGFNSRPRGRIYRGRARATSWYSPY	binds	binds
Ski-interacting protein (SKIP) (protein, UniProt Q9CSN1 1-536) MALTSFLPAPTQLSQDQLEAEERARSQRSLQTSLVSSRREPPPYGYRKGWIPRLLEDFGDGGAFPEIHVAQYPLDMGRKKKMSNALAIQVDPEGKIKYDAIARQGQSKDKVIYSKYTDLVPKEVMNADDPDLQRPDEEAIKEITEKTRVALEKSVSQKVAAAMPVRAADKLAPAQYIRYTPSQQGVAFNSGAKQRVIRMVEMQKEPMEPPRFKINKKIPRGPPSPPAPVMHSPSRKMTVKEQQEWKIPPCISNWKNAKGYTIPIDKRLAADGRGLQTVHINENFAKLAEALYIADRKAREAVEMRAQVERKMAQKEKEKHEEKLREMAQKARERRAGIKTHVEKEDGEARERDEIRHDRRKERQHDRNLSRAAPDKRSKLQRNENRDISEVIALGVPNPRTSNEVQYDQRLFNQSKGMDSGFAGGEDEIYNVYDQAWRGGKDMAQSIYRPSKNLDKDMYGDDLEARIKTNRFVPDKEFSGSDRKQRGREGPVQFEEDPFGLDKFLEEAKQHGGSKRPSDSSRPKEHEHEGKKRRKE	binds	binds
